According to the supplement of paper PMC8256030:
“And” between values parts separate entries of the source, which are not always exact repeats. Equal entries are not always repeated. Structures can show the parent of a compound that is named as a salt. The list shows a part of the results. Single values are uncertain here, since repeats match poorly.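 HEK293T cells were given each compound shortly before transfection with a reporter in which red mCherry is followed by the SARS-CoV-2 frameshift element and then GFP in the −1 frame, so GFP appears only after frameshifting.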

Key:
[1] = system: SARS-CoV-2 -1 PRF reporter mCherry-FSE-GFP(-1); test: mCherry (red) intensity as percent of control; higher = higher upstream reporter expression; conditions: 10 µM; 24 h; HEK293T
[2] = system: SARS-CoV-2 -1 PRF reporter mCherry-FSE-GFP(-1); test: percent effect, decrease of GFP/mCherry ratio (-1 PRF reporter) relative to controls; higher = stronger frameshift inhibition; conditions: 10 µM; 24 h; HEK293T

SMILES	mCherry [1]	percent effect [2]
CC(C)(Oc1ccc(Cl)cc1)C(=O)O [Clofibric acid]	72.3%	-5.41%
Cc1cc(NC(=O)C2=C(O)c3ccccc3S(=O)(=O)N2C)no1 [isoxicam]	63.5%	-3.14%
N#Cc1ccc2[nH]cc(CCCCN3CCN(c4ccc5oc(C(N)=O)cc5c4)CC3)c2c1	84.8%	-1.18%
Cn1c(=O)cnn(CCCCN2CCN(c3ncccn3)CC2)c1=O [eptapirone]	99.9%	-1.48%
CC(C)=CCOc1ccc(/C=C/C(=O)c2ccc(OCC=C(C)C)cc2OCC(=O)O)cc1 [sofalcone]	93.5%	-3.71%
Cc1cc2c(s1)Nc1ccccc1N=C2N1CCN(C)CC1 [Olanzapine]	110%	1.15%
CC[N+](C)(C)Cc1ccccc1Br [Bretylol]	114%	-8.04%
CCN(CC)CCOc1ccc(C(=C(Cl)c2ccccc2)c2ccccc2)cc1 [clomifene]	97.1% and 91.8% and 82.5%	-2.6% and -9.26% and -0.594%
CC(N)C12CC3CC(CC(C3)C1)C2 (centres undefined) [Rimantadine]	119%	-7.37%
C=C1C[C@H]2[C@@H]3C=C(C)C4=CC(=O)CC[C@]4(C)[C@H]3CC[C@]2(C)[C@@]1(OC(C)=O)C(C)=O [Melengestrol Acetate]	119%	4.39%
NC1CCN(c2nc3c(cc2F)c(=O)c(C(=O)O)cn3-c2ccc(F)cc2F)C1 (centres undefined) [tosufloxacin]	91%	-1.7%
CCCCC[C@](C)(O)/C=C/[C@@H]1[C@@H](C/C=C\CCCC(=O)O)[C@@H](O)C[C@H]1O [carboprost]	73.4%	-2.74%
CCCc1ncc(C[n+]2ccccc2C)c(N)n1	84%	-0.447%
CN1[C@@H]2CC[C@H]1C[C@@H](OC(=O)c1c[nH]c3ccccc13)C2 [Tropisetron]	71.1%	-8.11%
NOCc1ccc(Br)c(O)c1 [brocresine]	118%	-12.3%
NC(CO)(CO)CO [trometamol]	92.7%	7.44%
Clc1ccccc1CN1CCc2sccc2C1 [ticlopidine]	94.7%	0.194%
N[C@@H](Cc1c[nH]c2ccc(O)cc12)C(=O)O [oxitriptan]	102%	-1.68%
CC(=O)OCC(COC(C)=O)OC(C)=O [triacetin]	113%	-8.88%
C=C[C@H]1CN2CCC1C[C@H]2[C@H](O)c1ccnc2ccc(OC)cc12 (some centres undefined) [Quinine·HCl·2H2O]	99.1%	0.816%
CCOc1nc2cccc(C(=O)O)c2n1Cc1ccc(-c2ccccc2-c2nnn[nH]2)cc1 [Candesartan]	108% and 98.5%	-6.82% and -1.47%
CC1CCc2cc(F)cc3c(=O)c(C(=O)O)cn1c23 (centres undefined) [flumequine]	121%	-1.34%
CC(=O)[C@H]1CC[C@H]2[C@@H]3C=CC4=CC(=O)CC[C@@]4(C)[C@@H]3CC[C@]12C [dydrogesterone]	93.7%	-1.97%
CC(=O)OCC(=O)NCCCOc1cccc(CN2CCCCC2)c1 [Roxatidine acetate·HCl]	122%	5.09%
Oc1ccc2c(c1)CC[C@H](c1ccccc1)[C@@H]2c1ccc(OCCN2CCCC2)cc1 [lasofoxifene]	35%	-9.44%
O=P(O)(O)C(O)(Cn1ccnc1)P(=O)(O)O [Zoledronic acid]	110%	2.39%

Some of the entries so far, field by field:
C=C1C[C@H]2[C@@H]3C=C(C)C4=CC(=O)CC[C@]4(C)[C@H]3CC[C@]2(C)[C@@]1(OC(C)=O)C(C)=O [Melengestrol Acetate]
  mCherry [1]: 119%
  percent effect [2]: 4.39%
NC1CCN(c2nc3c(cc2F)c(=O)c(C(=O)O)cn3-c2ccc(F)cc2F)C1 (centres undefined) [tosufloxacin]
  mCherry [1]: 91%
  percent effect [2]: -1.7%
CCCCC[C@](C)(O)/C=C/[C@@H]1[C@@H](C/C=C\CCCC(=O)O)[C@@H](O)C[C@H]1O [carboprost]
  mCherry [1]: 73.4%
  percent effect [2]: -2.74%
CCCc1ncc(C[n+]2ccccc2C)c(N)n1
  mCherry [1]: 84%
  percent effect [2]: -0.447%

Next part

SMILES	mCherry [1]	percent effect [2]
O=c1c2c(c1=O)N(CCP(=O)(O)O)CCCN2 [perzinfotel]	96.7%	-8.03%
O=c1[nH]c2ccccc2n1CCN1CCN(c2cccc(C(F)(F)F)c2)CC1 [flibanserin]	117%	-7.07%
COc1ccc(CNc2nc(N3CCC[C@H]3CO)ncc2C(=O)NCc2ncccn2)cc1Cl [avanafil]	63.2%	-5.49%
CNCCCC1(c2ccccc2)OC(C)(C)c2ccccc21 (centres undefined) [talopram]	122%	-3.45%
CC(=O)O[C@]1(C(C)=O)CC[C@H]2[C@@H]3C=C(Cl)C4=CC(=O)CC[C@]4(C)[C@H]3CC[C@@]21C	141%	1.14%
COc1ccc2cc(CCC(C)=O)ccc2c1 [nabumetone]	76.2% and 90.3%	-3.18% and -5.83%
NC(=O)CCC/N=C(\c1ccc(Cl)cc1)c1cc(F)ccc1O [progabide]	83.3%	-4.79%
CC(C)n1c(/C=C/C(O)CC(O)CC(=O)O)c(-c2ccc(F)cc2)c2ccccc21 (centres undefined) [Fluvastatin]	132%	-0.601%
C=C1CC[C@H](O)C/C1=C/C=C1\CCC[C@]2(C)[C@@H]([C@H](C)CCCC(C)(C)O)CC[C@@H]12 [calcifediol]	107% and 88.1%	0.387% and -0.41%
O=C(O)C(Cc1cc(I)c(O)c(I)c1)c1ccccc1 (centres undefined) [pheniodol]	85.9%	-1.95%
CN1CCN2c3ccccc3Cc3ccccc3C2C1 (centres undefined) [Mianserin·HCl]	330%	1.46%
CN(C(=O)C(Cl)Cl)c1ccc(OC(=O)c2ccco2)cc1	84.9%	-4.63%
NCCNCCNCCN	127%	0.317%
CCC(C)(C)NCC(O)COc1ccccc1C#N (centres undefined) [penirolol]	105%	-7.52%
CC(C)(CO)NCC(O)c1ccccc1 (centres undefined) [fepradinol]	78%	-3.72%
C=C1c2cccc(O)c2C(O)=C2C(=O)[C@]3(O)C(O)=C(C(N)=O)C(=O)[C@@H](N(C)C)[C@@H]3[C@@H](O)[C@H]12 [metacycline]	61%	-1.49%
CC(=O)Oc1c(C)cc(OCC(O)CNC(C)C)c(C)c1C (centres undefined) [metipranolol]	113%	-3.36%
S=c1[nH]cnc2nc[nH]c12	120%	-1.5%
CN(C)CCC(O)(c1ccccc1)c1ccccc1Cl (centres undefined) [clofedanol]	106%	-3.01%
CC[C@]12CCCN3CCc4c(n(c5ccccc45)[C@@](O)(C(=O)OC)C1)[C@@H]32	132%	3.38%
CC(C)c1c(C(=O)Nc2ccccc2)c(-c2ccccc2)c(-c2ccc(F)cc2)n1CC[C@@H](O)C[C@@H](O)CC(=O)O	89.6%	-1.29%
Nc1nnc(-c2cccc(Cl)c2Cl)c(N)n1 [lamotrigine]	99.8% and 106%	-0.493% and 1.82%
COCC(=O)Nc1cc(Sc2ccccc2)ccc1N=C(NC(=O)OC)NC(=O)OC [febantel]	111%	-4.24%
Cc1cccc(Nc2ccncc2S(=O)(=O)NC(=O)NC(C)C)c1 [torasemide]	103%	-1.44%
Clc1cccc(C(c2ccc3[nH]cnc3c2)n2ccnc2)c1 (centres undefined) [liarozole]	100%	-2.45%
O=C(N/N=C/c1ccc([N+](=O)[O-])o1)c1ccc(O)cc1 [nifuroxazide]	50.9%	-7.26%

SMILES	mCherry [1]	percent effect [2]
CC(=O)[C@@]12O[C@](C)(c3ccccc3)O[C@@H]1C[C@H]1[C@@H]3CCC4=CC(=O)CC[C@]4(C)[C@H]3CC[C@@]12C	76.8%	-4.83%
CCCCN1CCCC1C(=O)Nc1c(C)cc(C)cc1C (centres undefined) [bumecaine]	104%	-0.472%
CC(COc1ccccc1)N(CCCl)Cc1ccccc1 (centres undefined) [phenoxybenzamine]	75.6% and 85.8%	-1.23% and -0.147%
O=C1CCC2CCC(=O)N12 [rolziracetam]	93.9%	-1.68%
Cc1cccc(C)c1NC(=O)C1CCCCN1C (centres undefined)	95.8%	-2.91%
NC(=O)N[C@@H](CCC(=O)O)C(=O)O [Carbaglu]	106%	-4.04%
CC(=O)OCC(=O)[C@@]1(O)CC[C@H]2[C@@H]3CCC4=CC(=O)CC[C@]4(C)[C@H]3[C@@H](O)C[C@@]21C [Hydrocortisone 21-acetate]	155%	1.9%
Cc1ncc(C[n+]2csc(CCOP(=O)(O)O)c2C)c(N)n1 [monophosphothiamine]	59.5%	-2.84%
CN1CCN(c2cc3c(nn2)Oc2ccccc2N3C)CC1 [pipofezine]	102%	-9.61%
O=P(O)(O)C(Sc1ccc(Cl)cc1)P(=O)(O)O [tiludronic acid]	128%	-4.31%
CC#CCC(C)[C@H](O)/C=C/[C@@H]1[C@H]2c3cccc(CCCC(=O)O)c3O[C@H]2C[C@H]1O (mixture of isomers) [beraprost]	94.5%	-2.84%
CC1=C(/C=C/C(C)=C/C=C/C(C)=C/C(=O)Nc2ccc(O)cc2)C(C)(C)CCC1 [fenretinide]	18.7%	-4.75%
Cn1nnnc1SCC1=C(C(=O)O)N2C(=O)[C@@H](NC(=O)[C@H](O)c3ccccc3)[C@H]2SC1	86.9%	-4.7%
CCCOc1ccc(C(=O)CCN2CCCCC2)cc1 [propipocaine]	85.5%	-2.64%
CCc1cccc(CC)c1NC(=O)CN(CC(=O)O)CC(=O)O [etifenin]	94.8%	2.46%
Cc1[nH]c(=O)c(C#N)cc1-c1ccc2nccn2c1 [olprinone]	102%	-4.97%
COc1nc(N)nc2c1ncn2[C@@H]1O[C@H](CO)[C@@H](O)[C@@H]1O	79.6%	-2.1%
COc1cc(C(=O)NS(=O)(=O)c2ccccc2C)ccc1Cc1cn(C)c2ccc(NC(=O)OC3CCCC3)cc12 [zafirlukast]	77.5%	-0.873%
COc1ccc(CC2c3cc(OC)c(OC)cc3CC[N+]2(C)CCC(=O)OCCCCCOC(=O)CC[N+]2(C)CCc3cc(OC)c(OC)cc3C2Cc2ccc(OC)c(OC)c2)cc1OC (centres undefined) [atracurium besilate]	76.6% and 92.8%	-5.05% and -8.81%
CNC(=S)C1(c2ccccn2)CCCS1 (centres undefined) [picartamide]	98.9%	1.35%
N=C(N)c1ccc(OCCCOc2ccc(C(=N)N)cc2Br)c(Br)c1 [dibrompropamidine]	78.5%	-4.65%
CCN(CC)CCOc1ccc2c(c1)C(=O)c1cc(OCCN(CC)CC)ccc1-2 [tilorone]	86.1%	14.3%
O=C(O)[C@@H](S)[C@@H](S)C(=O)O [succimer]	87.7%	-8.47%
CC1(c2ccccc2)OC(C(=O)O)=CC1=O (centres undefined) [acifran]	87.6%	-11.9%
Cn1c(CNc2ccc(C(=N)N)cc2)nc2cc(C(=O)N(CCC(=O)O)c3ccccn3)ccc21 [dabigatran]	100%	-2.85%
